This data set addresses T1, ELAV (rELAV) (UniProt P16914).
T1 sequence (looked up, limits assumed): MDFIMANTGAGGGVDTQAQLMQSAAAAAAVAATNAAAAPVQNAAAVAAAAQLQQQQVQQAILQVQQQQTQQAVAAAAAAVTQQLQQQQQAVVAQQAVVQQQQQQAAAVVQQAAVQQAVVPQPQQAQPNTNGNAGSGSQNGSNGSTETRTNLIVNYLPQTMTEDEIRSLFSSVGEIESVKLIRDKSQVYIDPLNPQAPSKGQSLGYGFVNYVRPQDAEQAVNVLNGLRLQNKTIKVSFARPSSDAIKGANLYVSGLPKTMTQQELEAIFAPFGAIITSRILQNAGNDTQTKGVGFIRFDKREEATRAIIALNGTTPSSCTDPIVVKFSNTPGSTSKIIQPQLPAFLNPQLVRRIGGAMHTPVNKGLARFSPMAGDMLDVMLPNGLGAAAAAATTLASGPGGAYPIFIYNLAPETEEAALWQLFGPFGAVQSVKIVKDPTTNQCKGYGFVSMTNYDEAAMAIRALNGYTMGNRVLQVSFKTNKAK
As to the kind of experiment: EMSA. To be noted: EMSA: 50 mM Tris-HCl pH 7.5, 60 mM NaCl, 25 ug/ml tRNA, 0.5 mM DTT, 50 ug/ml acetylated BSA, 20 min; 4-6% native gel in 0.5x TBE at 4 C; recombinant protein; protein details: GST tag, cleaved off with PreScission protease. On the technique in general: In EMSA bound probe runs differently from free probe, usually more slowly.

For at least one entry, the source does not settle the construct or the ends of the probe. Tags and fusion partners may be left off the protein sequences shown.

As for “GAAGCUAUUAUACAUUUUAUCUUAUAAUUUUAUACUUUAUGUU [M7H]”, the Kd amounted to 0.58 µM.

Usually Kd stands for the concentration at which binding is half-saturated.

The values above are taken from paper PMC11551757, “Phylogenomic instructed target analysis reveals ELAV complex binding to multiple optimally spaced U-rich motifs”.
